# Laboratory results reported in the supplement of paper PMC4604168 (melanoma cell lines).
# The other results are listed elsewhere or left out. Repeats are few or missing, and single values can be far off.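 Cells were imaged in 1,536-well plates, and nuclei stained with an antibody against cleaved PARP were counted against all DNA-stained nuclei to give the apoptosis fraction. Screening doses were chosen to leave most cells alive, and resting and induced cleaved-PARP levels differ strongly between cell lines.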
# Test system: IPC-298
# Assay: cleaved PARP positive nuclei fraction relative to DMSO control; melanoma cells; higher = more apoptosis
# Details: library dose: low library concentration; 72 h
row,SMILES,cleaved PARP positive nuclei fraction
1,"O=c1[nH]nc(Sc2ncc([N+](=O)[O-])s2)n1-c1ccc2c(c1)OCCO2 + c1cc(-c2cnn3cc(-c4ccc(OCCN5CCCCC5)cc4)cnc23)ccn1 [Dorsomorphin] (first compound 0.2 µM, partner dose 0.4 µM)",61.7%
2,"Cc1cc(Nc2cc(N3CCN(C)CC3)nc(Sc3ccc(NC(=O)C4CC4)cc3)n2)n[nH]1 [Tozasertib] + Oc1cc(-c2nc(-c3ccccc3)[nH]c2-c2ccncc2)ccc1Cl [L779450] (first compound 0.006 µM, partner dose 0.2 µM)",128%
3,"Cc1cc(Nc2cc(N3CCN(C)CC3)nc(Sc3ccc(NC(=O)C4CC4)cc3)n2)n[nH]1 [Tozasertib] + Cn1cc(/C=C2\C(=O)Nc3cccnc32)c2ccccc21 [GW441756] (first compound 0.006 µM, partner dose 0.4 µM)",302%
4,"Cc1cn(-c2cc(NC(=O)c3ccc(C)c(Nc4nccc(-c5cccnc5)n4)c3)cc(C(F)(F)F)c2)cn1 [nilotinib] + O=C(O)C(=O)Nc1sc2c(c1C(=O)O)CCNC2 [TCS401] (first compound 0.2 µM, partner dose 1.66667 µM)",181%
5,"Cc1cn(-c2cc(NC(=O)c3ccc(C)c(Nc4nccc(-c5cccnc5)n4)c3)cc(C(F)(F)F)c2)cn1 [nilotinib] + O=S(=O)(c1ccccc1)N(CC(F)(F)F)c1ccc(C(O)(C(F)(F)F)C(F)(F)F)cc1 [T0901317] (first compound 0.2 µM, partner dose 1.4 µM)",143%
6,"COc1cc([C@@H]2c3cc4c(cc3[C@@H](O[C@@H]3O[C@@H]5CO[C@@H](C)O[C@H]5[C@H](O)[C@H]3O)[C@H]3COC(=O)[C@H]23)OCO4)cc(OC)c1O [etoposide] + Cc1cc([N+](=O)[O-])ccc1NS(=O)(=O)c1cc(Cl)ccc1Cl [FH535] (first compound 0.02 µM, partner dose 1 µM)",49%
7,"N#CC[C@H](C1CCCC1)n1cc(-c2ncnc3[nH]ccc23)cn1 [ruxolitinib] + N#Cc1c(O)c2c(-c3ccc(-c4ccccc4O)cc3)csc2[nH]c1=O [A769662] (first compound 1 µM, partner dose 2 µM)",45.4%
8,"COc1cc([C@@H]2c3cc4c(cc3[C@@H](O[C@@H]3O[C@@H]5CO[C@@H](C)O[C@H]5[C@H](O)[C@H]3O)[C@H]3COC(=O)[C@H]23)OCO4)cc(OC)c1O [etoposide] + O=C1NC(=O)/C(=C/c2ccc(-c3ccc(F)cc3O)o2)S1 [AS252424] (first compound 0.02 µM, partner dose 1 µM)",29.8%
9,"COc1cc([C@@H]2c3cc4c(cc3[C@@H](O[C@@H]3O[C@@H]5CO[C@@H](C)O[C@H]5[C@H](O)[C@H]3O)[C@H]3COC(=O)[C@H]23)OCO4)cc(OC)c1O [etoposide] + CC(C)CCN1c2nc(Nc3cc(F)c(O)c(F)c3)ncc2N(C)C(=O)C1C [BID1870] (first compound 0.02 µM, partner dose 0.2 µM)",66.9%
10,"Cc1ccc(Nc2nccc(N(C)c3ccc4c(C)n(C)nc4c3)n2)cc1S(N)(=O)=O [Pazopanib] + CCN(CC)CCCCNc1ncc2cc(-c3cc(OC)cc(OC)c3)c(NC(=O)NC(C)(C)C)nc2n1 [PD173074] (first compound 0.4 µM, partner dose 0.1 µM)",112%
11,"Cc1cn(-c2cc(NC(=O)c3ccc(C)c(Nc4nccc(-c5cccnc5)n4)c3)cc(C(F)(F)F)c2)cn1 [nilotinib] + COc1ccc2c(c1)CCC1C2CCC2(C)C(NCCCCCCN3C(=O)C=CC3=O)CCC12 [U73122] (first compound 0.2 µM, partner dose 0.4 µM)",46.6%
12,"N#CC[C@H](C1CCCC1)n1cc(-c2ncnc3[nH]ccc23)cn1 [ruxolitinib] + COc1ccc2c(c1)CCC1C2CCC2(C)C(NCCCCCCN3C(=O)C=CC3=O)CCC12 [U73122] (first compound 1 µM, partner dose 0.4 µM)",46.5%
13,"CCCCCCCCCCCCCCCCCCOP(=O)([O-])OC1CC[N+](C)(C)CC1 [Perifosine] + O=C(O)C(=O)Nc1sc2c(c1C(=O)O)CCNC2 [TCS401] (first compound 0.4 µM, partner dose 1.66667 µM)",140%
14,"Cc1cn(-c2cc(NC(=O)c3ccc(C)c(Nc4nccc(-c5cccnc5)n4)c3)cc(C(F)(F)F)c2)cn1 [nilotinib] + COc1cc(N2CCC(N3CCN(C)CC3)CC2)ccc1Nc1ncc(Cl)c(Nc2ccccc2S(=O)(=O)C(C)C)n1 [NVP-TAE684] (first compound 0.2 µM, partner dose 0.08 µM)",66%
15,"Cc1ccc(Nc2nccc(N(C)c3ccc4c(C)n(C)nc4c3)n2)cc1S(N)(=O)=O [Pazopanib] + O=C(Nc1ccccc1)c1cc([N+](=O)[O-])ccc1Cl [GW9662] (first compound 0.4 µM, partner dose 2 µM)",59.3%
16,"O=C(Nc1cc(C(F)(F)F)cc(C(F)(F)F)c1)c1cc(Cl)ccc1O + O=C(O)C(=O)Nc1sc2c(c1C(=O)O)CCNC2 [TCS401] (first compound 0.016 µM, partner dose 1.66667 µM)",46.7%

# As a working copy, some entries already given:
row,SMILES,cleaved PARP positive nuclei fraction
13,"CCCCCCCCCCCCCCCCCCOP(=O)([O-])OC1CC[N+](C)(C)CC1 [Perifosine] + O=C(O)C(=O)Nc1sc2c(c1C(=O)O)CCNC2 [TCS401] (first compound 0.4 µM, partner dose 1.66667 µM)",140%
14,"Cc1cn(-c2cc(NC(=O)c3ccc(C)c(Nc4nccc(-c5cccnc5)n4)c3)cc(C(F)(F)F)c2)cn1 [nilotinib] + COc1cc(N2CCC(N3CCN(C)CC3)CC2)ccc1Nc1ncc(Cl)c(Nc2ccccc2S(=O)(=O)C(C)C)n1 [NVP-TAE684] (first compound 0.2 µM, partner dose 0.08 µM)",66%
